The supplement of paper PMC10849652
This is one part of the list.

By UniProt entry, the sequences of proteins in these tests, tags left out. Where a name states a change or a piece, a line headed by the entry shows the natural chain unless it says otherwise.
UniProt O60573: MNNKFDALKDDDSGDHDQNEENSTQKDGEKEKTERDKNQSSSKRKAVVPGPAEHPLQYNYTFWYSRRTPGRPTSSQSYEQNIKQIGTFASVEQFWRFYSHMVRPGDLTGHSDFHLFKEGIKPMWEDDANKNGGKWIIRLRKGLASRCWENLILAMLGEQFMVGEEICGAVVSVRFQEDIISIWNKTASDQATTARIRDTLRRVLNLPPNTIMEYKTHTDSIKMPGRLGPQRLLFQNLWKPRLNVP
UniProt O43414: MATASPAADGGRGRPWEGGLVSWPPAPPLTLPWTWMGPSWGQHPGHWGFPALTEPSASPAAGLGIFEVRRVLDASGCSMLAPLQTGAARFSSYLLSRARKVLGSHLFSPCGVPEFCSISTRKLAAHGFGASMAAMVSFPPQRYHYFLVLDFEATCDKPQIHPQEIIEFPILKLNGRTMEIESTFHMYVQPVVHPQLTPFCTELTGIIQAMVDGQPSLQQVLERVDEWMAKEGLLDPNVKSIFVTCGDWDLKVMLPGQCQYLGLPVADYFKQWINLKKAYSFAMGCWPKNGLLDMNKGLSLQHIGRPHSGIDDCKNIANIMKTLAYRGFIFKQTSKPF
UniProt P63241: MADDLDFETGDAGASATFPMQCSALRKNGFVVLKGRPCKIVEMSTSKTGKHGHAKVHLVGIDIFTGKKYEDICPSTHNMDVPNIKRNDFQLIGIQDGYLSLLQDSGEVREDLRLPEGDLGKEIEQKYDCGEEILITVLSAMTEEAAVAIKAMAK
UniProt Q9NPA8: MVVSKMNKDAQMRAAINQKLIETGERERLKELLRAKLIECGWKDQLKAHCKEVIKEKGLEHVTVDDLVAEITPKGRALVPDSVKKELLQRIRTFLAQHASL
UniProt O00303, whole entry, looked up: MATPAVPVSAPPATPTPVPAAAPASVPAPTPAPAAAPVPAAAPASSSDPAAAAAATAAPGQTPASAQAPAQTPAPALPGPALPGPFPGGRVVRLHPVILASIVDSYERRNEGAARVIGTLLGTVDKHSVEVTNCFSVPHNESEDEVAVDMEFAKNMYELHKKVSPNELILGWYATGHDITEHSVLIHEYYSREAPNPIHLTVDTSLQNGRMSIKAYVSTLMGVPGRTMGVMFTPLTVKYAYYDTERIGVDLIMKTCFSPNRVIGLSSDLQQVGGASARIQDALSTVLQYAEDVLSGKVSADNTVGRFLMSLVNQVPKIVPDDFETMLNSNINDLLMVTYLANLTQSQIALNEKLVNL
UniProt O43768: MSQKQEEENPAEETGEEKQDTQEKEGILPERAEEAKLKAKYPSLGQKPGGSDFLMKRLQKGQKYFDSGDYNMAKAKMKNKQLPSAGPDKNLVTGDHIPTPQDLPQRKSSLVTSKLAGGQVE
UniProt Q9BQ52: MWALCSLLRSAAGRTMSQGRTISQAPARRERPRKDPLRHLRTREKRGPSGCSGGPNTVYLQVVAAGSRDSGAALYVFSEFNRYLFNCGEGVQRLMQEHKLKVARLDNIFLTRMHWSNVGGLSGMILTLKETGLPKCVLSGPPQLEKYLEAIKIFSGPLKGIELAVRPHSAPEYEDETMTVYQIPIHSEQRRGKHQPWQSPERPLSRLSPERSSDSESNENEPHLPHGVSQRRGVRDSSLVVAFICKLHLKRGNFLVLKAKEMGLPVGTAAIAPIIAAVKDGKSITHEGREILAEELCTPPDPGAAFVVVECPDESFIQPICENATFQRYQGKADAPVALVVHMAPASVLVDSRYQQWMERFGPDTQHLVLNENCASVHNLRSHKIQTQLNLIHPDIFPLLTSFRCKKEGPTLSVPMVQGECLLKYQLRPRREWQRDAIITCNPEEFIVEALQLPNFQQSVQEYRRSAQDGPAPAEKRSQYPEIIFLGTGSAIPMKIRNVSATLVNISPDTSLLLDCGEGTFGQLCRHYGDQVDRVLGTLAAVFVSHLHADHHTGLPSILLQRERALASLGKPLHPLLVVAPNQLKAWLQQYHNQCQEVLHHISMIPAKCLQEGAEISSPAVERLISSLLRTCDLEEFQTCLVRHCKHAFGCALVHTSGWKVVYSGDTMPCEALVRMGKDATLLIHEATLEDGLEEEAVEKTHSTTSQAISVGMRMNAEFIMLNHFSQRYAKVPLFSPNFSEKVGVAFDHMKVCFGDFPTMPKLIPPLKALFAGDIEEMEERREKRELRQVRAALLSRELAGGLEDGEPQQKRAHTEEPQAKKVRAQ
UniProt Q14232, whole entry, looked up: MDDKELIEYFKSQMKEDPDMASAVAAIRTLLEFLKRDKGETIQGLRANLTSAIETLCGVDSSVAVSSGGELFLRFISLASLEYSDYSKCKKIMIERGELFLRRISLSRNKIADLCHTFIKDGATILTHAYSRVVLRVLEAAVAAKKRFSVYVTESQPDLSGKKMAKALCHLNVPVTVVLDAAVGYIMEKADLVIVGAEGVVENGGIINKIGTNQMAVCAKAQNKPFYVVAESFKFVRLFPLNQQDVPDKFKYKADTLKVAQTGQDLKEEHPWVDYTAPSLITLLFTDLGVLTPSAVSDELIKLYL
UniProt Q99613, whole entry, looked up: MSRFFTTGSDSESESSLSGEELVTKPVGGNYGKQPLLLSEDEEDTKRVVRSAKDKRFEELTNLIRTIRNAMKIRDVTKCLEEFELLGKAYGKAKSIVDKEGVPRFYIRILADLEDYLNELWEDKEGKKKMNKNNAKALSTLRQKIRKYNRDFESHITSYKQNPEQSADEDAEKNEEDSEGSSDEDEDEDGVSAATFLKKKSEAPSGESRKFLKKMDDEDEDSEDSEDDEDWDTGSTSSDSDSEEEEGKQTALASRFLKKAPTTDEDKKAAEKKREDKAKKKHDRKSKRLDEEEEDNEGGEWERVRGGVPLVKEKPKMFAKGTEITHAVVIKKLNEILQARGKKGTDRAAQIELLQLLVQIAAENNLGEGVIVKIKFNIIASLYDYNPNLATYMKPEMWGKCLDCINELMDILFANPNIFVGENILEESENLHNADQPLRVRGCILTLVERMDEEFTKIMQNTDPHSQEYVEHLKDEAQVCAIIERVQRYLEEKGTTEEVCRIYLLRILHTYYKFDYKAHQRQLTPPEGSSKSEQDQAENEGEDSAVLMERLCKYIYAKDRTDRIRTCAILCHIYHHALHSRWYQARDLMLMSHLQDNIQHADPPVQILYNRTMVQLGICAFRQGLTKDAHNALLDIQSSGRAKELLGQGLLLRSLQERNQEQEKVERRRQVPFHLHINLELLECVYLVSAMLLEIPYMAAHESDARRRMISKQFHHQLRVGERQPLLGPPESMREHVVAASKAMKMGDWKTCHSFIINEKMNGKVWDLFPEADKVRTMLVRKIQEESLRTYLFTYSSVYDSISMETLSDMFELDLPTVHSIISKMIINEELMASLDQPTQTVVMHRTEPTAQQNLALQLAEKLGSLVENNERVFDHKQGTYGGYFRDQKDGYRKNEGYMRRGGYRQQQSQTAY
UniProt O15371, whole entry, looked up: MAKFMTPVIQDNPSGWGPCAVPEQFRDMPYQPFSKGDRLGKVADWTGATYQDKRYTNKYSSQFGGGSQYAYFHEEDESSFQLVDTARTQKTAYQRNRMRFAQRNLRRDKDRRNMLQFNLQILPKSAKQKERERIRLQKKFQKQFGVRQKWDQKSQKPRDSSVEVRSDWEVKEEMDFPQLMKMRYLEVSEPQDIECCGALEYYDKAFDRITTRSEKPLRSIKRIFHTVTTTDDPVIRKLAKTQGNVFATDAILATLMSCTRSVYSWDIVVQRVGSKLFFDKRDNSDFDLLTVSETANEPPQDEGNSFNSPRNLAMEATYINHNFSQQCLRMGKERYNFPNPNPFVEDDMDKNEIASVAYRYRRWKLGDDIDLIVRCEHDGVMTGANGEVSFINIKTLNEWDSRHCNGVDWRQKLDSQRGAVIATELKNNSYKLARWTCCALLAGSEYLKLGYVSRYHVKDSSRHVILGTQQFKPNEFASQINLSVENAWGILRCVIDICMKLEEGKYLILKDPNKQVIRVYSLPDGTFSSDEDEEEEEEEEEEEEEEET
UniProt Q8TE02: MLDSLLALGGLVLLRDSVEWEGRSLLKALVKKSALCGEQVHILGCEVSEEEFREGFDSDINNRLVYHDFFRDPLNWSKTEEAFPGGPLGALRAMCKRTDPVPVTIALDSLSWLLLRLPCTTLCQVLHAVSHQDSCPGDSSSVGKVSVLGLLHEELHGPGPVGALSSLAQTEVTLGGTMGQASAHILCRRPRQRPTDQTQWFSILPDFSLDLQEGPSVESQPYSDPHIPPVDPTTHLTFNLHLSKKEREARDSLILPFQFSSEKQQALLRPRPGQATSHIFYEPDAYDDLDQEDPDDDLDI
UniProt Q9BV81: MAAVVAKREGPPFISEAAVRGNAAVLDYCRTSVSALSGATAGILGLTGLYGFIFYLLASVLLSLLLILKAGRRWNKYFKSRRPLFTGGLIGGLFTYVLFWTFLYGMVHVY
UniProt P49770: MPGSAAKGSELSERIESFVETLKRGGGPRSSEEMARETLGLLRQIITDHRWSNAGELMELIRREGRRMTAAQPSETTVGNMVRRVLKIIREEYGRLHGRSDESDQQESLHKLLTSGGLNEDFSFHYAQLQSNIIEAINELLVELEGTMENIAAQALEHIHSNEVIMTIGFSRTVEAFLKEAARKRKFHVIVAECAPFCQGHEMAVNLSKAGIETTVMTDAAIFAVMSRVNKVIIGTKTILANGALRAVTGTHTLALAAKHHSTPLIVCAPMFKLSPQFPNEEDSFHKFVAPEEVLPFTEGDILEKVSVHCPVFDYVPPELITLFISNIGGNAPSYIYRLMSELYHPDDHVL
UniProt Q9NR50: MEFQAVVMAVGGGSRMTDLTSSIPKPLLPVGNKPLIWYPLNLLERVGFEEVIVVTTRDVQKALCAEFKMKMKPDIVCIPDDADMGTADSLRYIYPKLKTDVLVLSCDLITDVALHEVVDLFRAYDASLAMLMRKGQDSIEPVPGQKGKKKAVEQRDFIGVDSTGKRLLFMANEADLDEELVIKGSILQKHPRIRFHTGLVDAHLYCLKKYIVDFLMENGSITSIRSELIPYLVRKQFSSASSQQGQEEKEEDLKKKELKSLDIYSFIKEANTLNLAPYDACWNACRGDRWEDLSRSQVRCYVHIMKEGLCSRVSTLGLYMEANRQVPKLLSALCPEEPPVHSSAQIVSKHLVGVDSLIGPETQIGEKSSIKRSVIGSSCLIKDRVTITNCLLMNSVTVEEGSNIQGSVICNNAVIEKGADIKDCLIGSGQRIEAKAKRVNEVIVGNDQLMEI
UniProt P07099: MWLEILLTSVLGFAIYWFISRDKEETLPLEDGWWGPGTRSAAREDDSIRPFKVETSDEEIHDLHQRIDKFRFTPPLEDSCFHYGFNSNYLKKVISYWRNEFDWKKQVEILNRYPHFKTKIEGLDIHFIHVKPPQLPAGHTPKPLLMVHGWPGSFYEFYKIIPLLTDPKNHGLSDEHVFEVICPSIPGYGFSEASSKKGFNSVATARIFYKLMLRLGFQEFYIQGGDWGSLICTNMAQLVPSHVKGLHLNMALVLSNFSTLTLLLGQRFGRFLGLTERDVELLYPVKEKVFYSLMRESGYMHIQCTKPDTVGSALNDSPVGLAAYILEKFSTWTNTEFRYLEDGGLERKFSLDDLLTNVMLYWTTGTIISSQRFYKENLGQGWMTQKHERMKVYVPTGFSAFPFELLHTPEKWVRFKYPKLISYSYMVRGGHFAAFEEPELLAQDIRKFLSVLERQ

Tests used:
Test in all cases: log2 fold change, soluble protein after heating vs DMSO (PISA); higher = thermal stabilisation; K562 lysate, 10 uM; active = over 0.2 and 3.5 SD of the protein, either way, in both replicates (recomputed)
erlotinib = compound: C#Cc1cccc(Nc2ncnc3cc(OCCOC)c(OCCOC)cc23)c1 [erlotinib]
Procedure, shortened: (§1)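 Values give the log-two fold change in thermal stability against solvent controls, from duplicates. Crude K562 extract at 1 mg/mL protein, made by dounce homogenisation in PBS pH 7.4 with 1 mM MgCl2, was treated with 10 μM compound for 30 min. After 3 min heating across 48°C-58°C, aliquots were pooled, adjusted to 0.5% NP-40 at 4°C and centrifuged at 21,000xg for 90 min. The supernatant was measured by TMTpro 16plex LC-MS/MS with channel sums equalised.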

[1] = compound: C/C(=N\NC(=O)C1=CC(=CC=C1)S(=O)(=O)N2CCOCC2)/C3=C(C=CC(=C3)Cl)O
Procedure, shortened: as §1

[2] = compound: C1=CC(=CC=C1C2=NC3=C(N2)C=C(C=C3)C(=O)N)OC4=CC=C(C=C4)Cl
Procedure, shortened: as §1

[3] = compound: C1=CC2=C(C=CC(=C2)/C=C\3/C(=O)NC(=NCC4=CC=CS4)S3)N=C1
Procedure, shortened: as §1

[4] = compound: C1=CC2=NC=CN=C2C=C1/C=C/3\C(=O)NC(=O)S3
Procedure, shortened: as §1

[5] = compound: C1=CC=C(C=C1)C2=NC(=C(N2)C3=CC=NC=C3)C4=CC(=C(C=C4)Cl)O
Procedure, shortened: as §1

[6] = compound: C1=CC=C2C(=C1)C3=NNC4=CC=CC(=C43)C2=O
Procedure, shortened: as §1

[7] = compound: C1CCN(C1)C(=O)NC2=CC=CC(=C2)NC3=NC=C(C(=N3)NCCC4=CN=CN4)Br
Procedure, shortened: as §1

[8] = compound: C1CN(CCC1(CC2=CC=C(C=C2)Cl)N)C3=NC=NC4=C3C=CN4
Procedure, shortened: as §1

IRAK-1-4 Inhibitor I = compound: C1COCCN1CCN2C3=CC=CC=C3N=C2NC(=O)C4=CC(=CC=C4)[N+](=O)[O-] [IRAK-1-4 Inhibitor I]
Procedure, shortened: as §1

ibrutinib = compound: C=CC(=O)N1CCC[C@@H](n2nc(-c3ccc(Oc4ccccc4)cc3)c3c(N)ncnc32)C1 [ibrutinib]
Procedure, shortened: as §1

[9] = compound: CC(=O)c1cnc2ccc(-c3cc(Cl)c(O)c(Cl)c3)nc2c1N[C@H]1CC[C@H](CN(C)C)CC1
Procedure, shortened: as §1

ralimetinib = compound: CC(C)(C)Cn1c(N)nc2ccc(-c3[nH]c(C(C)(C)C)nc3-c3ccc(F)cc3)nc21 [ralimetinib]
Procedure, shortened: as §1

[10] = compound: CC(C)(O)CC(=O)NCCn1ccc2ncnc(Nc3ccc(Oc4cccc(C(F)(F)F)c4)c(Cl)c3)c21
Procedure, shortened: as §1

[11] = compound: CC(C)C1=C2N=C(C=C(N2N=C1)NCC3=CC=CC=C3)NCCCCCCN
Procedure, shortened: as §1

[12] = compound: CC1=C(C(CC(=O)N1)C2=CC=C(C=C2)C(F)(F)F)C(=O)NC3=C(C=C4C(=C3)C=NN4)F
Procedure, shortened: as §1

[13] = compound: CC1=C(C2=C(C=C1)C(=O)C3=CC=CC=C3N2CCCN)C
Procedure, shortened: as §1

[14] = compound: CC1=C(C=C(C=C1)NC(=O)C2=CC(=CC=C2)C(C)(C)C#N)NC3=CC4=C(C=C3)N=CN(C4=O)C
Procedure, shortened: as §1

[15] = compound: CC1=C(C=C(C=C1)NC(=O)C2=CC(=CC=C2)N(C)C)NC(=O)C3=CC=C(C=C3)O
Procedure, shortened: as §1

[16] = compound: CC1=CC=C(C=C1)SC2=C3C=C(SC3=CN=C2)C(=O)N
Procedure, shortened: as §1

Measured: log2 fold change

EIF4E2 (UniProt O60573)
inactive: erlotinib -0.002 | [1] 0.017 | [2] -0.035 | [3] -0.037 | [4] -0.075 | [5] 0.039 | [6] -0.013 | [7] -0.036 | [8] 0.067 | IRAK-1-4 Inhibitor I 0.037 | ibrutinib -0.079 | [9] 0.004 | ralimetinib 0.039 | [10] -0.026 | [11] 0.055 | [12] 0.042 | [13] 0.083 | [14] -0.024 | [15] -0.059 | [16] -0.015

ERI3 (UniProt O43414)
inactive: erlotinib 0.017 | [1] 0.059 | [2] 0.017 | [3] -0.037 | [4] -0.03 | [5] 0.021 | [6] -0.017 | [7] -0.024 | [8] 0.046 | IRAK-1-4 Inhibitor I -0.004 | ibrutinib -0.029 | [9] -0.033 | ralimetinib -0.033 | [10] -0.022 | [11] -0.024 | [12] -0.025 | [13] -0.009 | [14] 0.01 | [15] -0.006 | [16] 0.003

EIF5A isoform 2 (UniProt P63241)
inactive: erlotinib -0.012 | [1] 0.001 | [2] 0.007 | [3] 0 | [4] 0.009 | [5] 0.024 | [6] 0.03 | [7] 0.014 | [8] 0.016 | IRAK-1-4 Inhibitor I -0.011 | ibrutinib 0.003 | [9] 0.012 | ralimetinib -0.017 | [10] -0.002 | [11] -0.009 | [12] -0.042 | [13] 0.001 | [14] 0.029 | [15] 0.014 | [16] -0.001

EIF3G (UniProt K7ER90)
inactive: erlotinib 0.001 | [1] -0.097 | [2] 0.009 | [3] -0.1 | [4] -0.101 | [5] -0.055 | [6] -0.085 | [7] -0.206 | [8] 0.046 | IRAK-1-4 Inhibitor I -0.043 | ibrutinib -0.146 | [9] 0.013 | ralimetinib -0.062 | [10] -0.008 | [11] 0.057 | [12] -0.142 | [13] 0.134 | [14] 0.118 | [15] 0.013 | [16] 0.037

ENY2 (UniProt Q9NPA8)
inactive: erlotinib 0.033 | [1] 0.03 | [2] -0.015 | [3] 0.002 | [4] -0.026 | [5] 0.043 | [6] 0.081 | [7] 0.104 | [8] -0.087 | IRAK-1-4 Inhibitor I -0.019 | ibrutinib 0.161 | [9] 0.038 | ralimetinib -0.021 | [10] 0.057 | [11] 0 | [12] -0.069 | [13] 0.066 | [14] 0.075 | [15] -0.052 | [16] 0.035

EIF3F (UniProt O00303)
inactive: erlotinib 0.032 | [1] -0.023 | [2] -0.011 | [3] 0.018 | [4] -0.017 | [5] 0.008 | [6] -0.02 | [7] -0.021 | [8] -0.005 | IRAK-1-4 Inhibitor I -0.009 | ibrutinib -0.028 | [9] -0.016 | ralimetinib 0.009 | [10] 0.007 | [11] 0.012 | [12] -0.044 | [13] -0.007 | [14] -0.055 | [15] 0.014 | [16] 0.002

ENSA isoform 3 (UniProt O43768)
inactive: erlotinib -0.034 | [1] 0.032 | [2] 0 | [3] -0.013 | [4] -0.047 | [6] 0.013 | [7] 0.006 | [8] 0.006 | IRAK-1-4 Inhibitor I -0.004 | ibrutinib 0.042 | [9] 0.015 | ralimetinib -0.019 | [10] 0.02 | [11] -0.013 | [12] -0.016 | [13] 0.039 | [14] -0.042 | [15] -0.057 | [16] -0.01
active: [5] -0.459

ELAC2 (UniProt Q9BQ52)
inactive: erlotinib 0.003 | [1] -0.042 | [2] -0.002 | [3] 0.006 | [4] -0.002 | [5] 0.02 | [6] -0.001 | [7] 0.001 | [8] -0.004 | IRAK-1-4 Inhibitor I 0.028 | ibrutinib 0.035 | [9] 0.011 | ralimetinib 0.011 | [10] -0.025 | [11] -0.001 | [12] -0.043 | [13] 0.003 | [14] 0.036 | [15] -0.024 | [16] 0.003

EIF2B1 (UniProt Q14232)
inactive: erlotinib 0.011 | [1] 0.007 | [2] -0.005 | [3] 0.007 | [4] 0.024 | [5] 0.007 | [6] 0.012 | [7] 0.028 | [8] -0.001 | IRAK-1-4 Inhibitor I -0.006 | ibrutinib 0 | [9] 0.014 | ralimetinib -0.002 | [10] -0.006 | [11] -0.013 | [12] -0.011 | [13] 0.015 | [14] -0.002 | [15] -0.005 | [16] 0.001

EIF3C (UniProt Q99613)
inactive: erlotinib -0.02 | [1] 0.022 | [2] -0.047 | [3] -0.001 | [4] 0.028 | [5] -0.023 | [6] -0.037 | [7] 0 | [8] -0.002 | IRAK-1-4 Inhibitor I -0.017 | ibrutinib -0.013 | [9] 0.003 | ralimetinib 0.028 | [10] 0.008 | [11] 0.003 | [12] -0.019 | [13] 0.006 | [14] -0.022 | [15] 0.039 | [16] 0.012

EIF3D (UniProt O15371)
inactive: erlotinib -0.008 | [1] 0.057 | [2] -0.046 | [3] -0.008 | [4] 0.03 | [5] -0.014 | [6] -0.028 | [7] -0.006 | [8] 0.031 | IRAK-1-4 Inhibitor I -0.027 | ibrutinib -0.013 | [9] -0.005 | ralimetinib 0.013 | [10] 0.013 | [11] 0.029 | [12] -0.016 | [13] 0.02 | [14] -0.016 | [15] 0.035 | [16] 0.012

ELP5 isoform 4 (UniProt Q8TE02)
inactive: erlotinib 0.072 | [1] -0.063 | [2] 0.029 | [3] 0.031 | [4] 0.018 | [5] -0.012 | [6] 0.009 | [7] -0.019 | [8] -0.056 | IRAK-1-4 Inhibitor I -0.002 | ibrutinib -0.018 | [9] 0.027 | ralimetinib 0.023 | [10] -0.04 | [11] -0.007 | [12] 0.006 | [13] 0.029 | [14] 0.053 | [15] 0.033 | [16] -0.009

EMC6 (UniProt Q9BV81)
inactive: erlotinib -0.004 | [1] -0.056 | [2] -0.076 | [3] 0.003 | [4] 0.054 | [5] -0.011 | [6] -0.029 | [7] 0.017 | [8] 0.071 | IRAK-1-4 Inhibitor I 0.095 | ibrutinib 0.01 | [9] 0.036 | ralimetinib -0.069 | [10] 0.006 | [11] 0.016 | [12] 0.094 | [13] -0.089 | [14] 0.017 | [15] 0.189 | [16] 0.033

EIF2B2 (UniProt P49770)
inactive: erlotinib -0.028 | [1] 0.006 | [2] -0.012 | [3] 0.005 | [4] 0.045 | [5] 0.013 | [6] 0.017 | [7] 0.001 | [8] -0.014 | IRAK-1-4 Inhibitor I 0.015 | ibrutinib -0.002 | [9] 0.016 | ralimetinib 0.005 | [10] -0.015 | [11] -0.026 | [12] 0.012 | [13] 0.011 | [14] 0.013 | [15] 0.011 | [16] 0.007

Pulled one by one from the entries so far (2):
ELP5 isoform 4 (UniProt Q8TE02)
inactive: erlotinib 0.072 | [1] -0.063 | [2] 0.029 | [3] 0.031 | [4] 0.018 | [5] -0.012 | [6] 0.009 | [7] -0.019 | [8] -0.056 | IRAK-1-4 Inhibitor I -0.002 | ibrutinib -0.018 | [9] 0.027 | ralimetinib 0.023 | [10] -0.04 | [11] -0.007 | [12] 0.006 | [13] 0.029 | [14] 0.053 | [15] 0.033 | [16] -0.009

EIF2B2 (UniProt P49770)
inactive: erlotinib -0.028 | [1] 0.006 | [2] -0.012 | [3] 0.005 | [4] 0.045 | [5] 0.013 | [6] 0.017 | [7] 0.001 | [8] -0.014 | IRAK-1-4 Inhibitor I 0.015 | ibrutinib -0.002 | [9] 0.016 | ralimetinib 0.005 | [10] -0.015 | [11] -0.026 | [12] 0.012 | [13] 0.011 | [14] 0.013 | [15] 0.011 | [16] 0.007

Going on with the list:

EIF2B3 (UniProt Q9NR50)
inactive: erlotinib 0.01 | [1] 0.029 | [2] -0.019 | [3] -0.009 | [4] 0.024 | [5] 0.001 | [6] -0.003 | [7] 0.014 | [8] 0.018 | IRAK-1-4 Inhibitor I -0.01 | ibrutinib 0.007 | [9] 0.02 | ralimetinib 0.011 | [10] 0.005 | [11] 0.004 | [12] -0.004 | [13] -0.007 | [14] 0.043 | [15] 0.021 | [16] -0.004

EPHX1 (UniProt P07099)
inactive: erlotinib -0.035 | [1] -0.049 | [2] 0.016 | [3] -0.025 | [4] 0.004 | [5] -0.002 | [6] 0.01 | [7] 0.065 | [8] -0.033 | IRAK-1-4 Inhibitor I -0.027 | ibrutinib -0.015 | [9] -0.013 | ralimetinib 0.043 | [10] 0.001 | [11] -0.005 | [12] 0.017 | [13] 0.054 | [14] 0.037 | [15] -0.014 | [16] -0.003
